No constants are given. Whether binding was seen depends on the method and setting.
Biological target: WzxE, the lipid III flippase from Escherichia coli (E. coli K-12 MG1655) (UniProt P0AAA7)
Test: crystal structure; WzxE-Nb10 complex crystallized in lipidic cubic phase (monoolein:ECP) at 20°C; outward-facing conformation (PDB 9G95, 9G97); both purified

binding: no binding
B1: WzxE, the lipid III flippase from Escherichia coli (protein, UniProt P0AAA7 1-416)
chain: MVSLAKASLWTAASTLVKIGAGLLVGKLLAVSFGPAGLGLAANFRQLITVLGVLAGAGIFNGVTKYVAQYHDNPQQLRRVVGTSSAMVLGFSTLMALVFVLAAAPISQGLFGNTDYQGLVRLVALVQMGIAWGNLLLALMKGFRDAAGNALSLIVGSLIGVLAYYVSYRLGGYEGALLGLALIPALVVIPAAIMLIKRGVIPLSYLKPSWDNGLAGQLSKFTLMALITSVTLPVAYIMMRKLLAAQYSWDEVGIWQGVSSISDAYLQFITASFSVYLLPTLSRLTEKRDITREVVKSLKFVLPAVAAASFTVWLLRDFAIWLLLSNKFTAMRDLFAWQLVGDVLKVGAYVFGYLVIAKASLRFYILAEVSQFTLLMVFAHWLIPAHGALGAAQAYMATYIVYFSLCCGVFLLWRRRA

Reference: paper PMC11706664, “Structure of WzxE the lipid III flippase for Enterobacterial Common Antigen polysaccharide” (Open Biology, 2025)
